PubChem BioAssay AID1259285 – Sanger Institute, 2017

Screen: 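Kinases needed for HCC56 growth and kinases whose loss boosts drug effects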 (primary screen)
System: human HCC56 colorectal cancer cells
Knock-down reagent: siRNA pool against human genes
Treatment: DMSO vehicle, or anchor drug BYL719 at 1 µM, cetuximab at 5 µg/ml, or trametinib at 10 nM
Measurement: 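Viability as a ratio to non-targeting pool wells, averaged over replicates and turned into a robust z-score; synergy scores with BYL719, cetuximab or trametinib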
Reading the numbers: viability robust z-score, no drug: higher = more viable cells, weaker knock-down effect
Hit rule: 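a knock-down counts as essential if its viability z-score without drug is under -3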
Calls: active = essential without drug; inactive = no change without drug
The deposit covers 794 reagents; shown is an unselected part. Of all reagents, 20 (2.5%) were called active. 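Calls rest on the drug-free arm alone and ignore synergy scores; viability ratios seem to be capped at 1.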 Entries without a mark were called inactive. Not all columns of the deposit are shown. Not stated in the record: the amount of reagent, the time to read-out.

For STK26 (serine/threonine kinase 26), what was measured?
viability robust z-score, no drug: 0.458

What is on record for NTRK1 (neurotrophic receptor tyrosine kinase 1)?
viability robust z-score, no drug: -0.189

What did the screen give for PIM3 (Pim-3 proto-oncogene, serine/threonine kinase)?
viability robust z-score, no drug: 0.458

How did the screen score STAG2 (STAG2 cohesin complex component)?
viability robust z-score, no drug: 0.458

With TP53RK (TP53 regulating kinase), what does the deposit list?
viability robust z-score, no drug: 0.458

What is on record for ACO1 (aconitase 1)?
viability robust z-score, no drug: 0.458

With FYN (FYN proto-oncogene, Src family tyrosine kinase), how do the results read?
viability robust z-score, no drug: 0.458

For PAK4 (p21 (RAC1) activated kinase 4), what does the deposit list?
viability robust z-score, no drug: 0.458

With SF3B1 (splicing factor 3b subunit 1), what was measured?
viability robust z-score, no drug: -5.51 (active)

Which result is listed for EPHB6 (EPH receptor B6)?
viability robust z-score, no drug: -0.11

What did the screen give for TWF2 (twinfilin actin binding protein 2)?
viability robust z-score, no drug: 0.458

What is on record for TTBK2 (tau tubulin kinase 2)?
viability robust z-score, no drug: 0.458

For PRKCZ (protein kinase C zeta), what was measured?
viability robust z-score, no drug: 0.458

What did the screen give for RPS6KA2 (ribosomal protein S6 kinase A2)?
viability robust z-score, no drug: -2.73

With EFNB3 (ephrin B3), what does the deposit list?
viability robust z-score, no drug: -1.24

What is on record for NEK7 (NIMA related kinase 7)?
viability robust z-score, no drug: 0.458

Which result is listed for CDK1 (cyclin dependent kinase 1)?
viability robust z-score, no drug: 0.458

Which result is listed for AKT2 (AKT serine/threonine kinase 2)?
viability robust z-score, no drug: -0.545

What is on record for STK32B (serine/threonine kinase 32B)?
viability robust z-score, no drug: -0.421

With SIK3 (SIK family kinase 3), what was measured?
viability robust z-score, no drug: 0.458

With WNK2 (WNK lysine deficient protein kinase 2), what does the deposit list?
viability robust z-score, no drug: 0.458

What is on record for CDKL1 (cyclin dependent kinase like 1)?
viability robust z-score, no drug: 0.0648

Targets listed so far whose target name starts with C or c:
CDK1 (cyclin dependent kinase 1) → viability robust z-score, no drug = 0.458
CDKL1 (cyclin dependent kinase like 1) → viability robust z-score, no drug = 0.0648

Further records follow.
For PMVK (phosphomevalonate kinase), what was measured?
viability robust z-score, no drug: -1.22

For LYN (LYN proto-oncogene, Src family tyrosine kinase), what was measured?
viability robust z-score, no drug: 0.458

What is on record for IP6K3 (inositol hexakisphosphate kinase 3)?
viability robust z-score, no drug: -0.294

With MAPKAPK3 (MAPK activated protein kinase 3), what was measured?
viability robust z-score, no drug: 0.155

How did the screen score ELP1 (elongator acetyltransferase complex subunit 1)?
viability robust z-score, no drug: 0.458

Which result is listed for CAMK2D (calcium/calmodulin dependent protein kinase II delta)?
viability robust z-score, no drug: 0.458

For CDKN1C (cyclin dependent kinase inhibitor 1C), what does the deposit list?
viability robust z-score, no drug: 0.32

With PKDCC (protein kinase domain containing, cytoplasmic), what does the deposit list?
viability robust z-score, no drug: 0.458

Which result is listed for ROS1 (ROS proto-oncogene 1, receptor tyrosine kinase)?
viability robust z-score, no drug: 0.458

For MAPK15 (mitogen-activated protein kinase 15), what was measured?
viability robust z-score, no drug: 0.458

For NEK5 (NIMA related kinase 5), what was measured?
viability robust z-score, no drug: 0.458

Which result is listed for NME5 (NME/NM23 family member 5)?
viability robust z-score, no drug: 0.458

How did the screen score PGK1 (phosphoglycerate kinase 1)?
viability robust z-score, no drug: 0.458

Which result is listed for CDKN2B (cyclin dependent kinase inhibitor 2B)?
viability robust z-score, no drug: 0.458
